Data reported in the supplement of paper PMC10849652.
This is one part of the list.

Sequences of proteins named here, by UniProt entry; tags and fusion partners are left off. A change or cut given only in a name is not applied to a line headed by its entry.
UniProt Q8N7R7: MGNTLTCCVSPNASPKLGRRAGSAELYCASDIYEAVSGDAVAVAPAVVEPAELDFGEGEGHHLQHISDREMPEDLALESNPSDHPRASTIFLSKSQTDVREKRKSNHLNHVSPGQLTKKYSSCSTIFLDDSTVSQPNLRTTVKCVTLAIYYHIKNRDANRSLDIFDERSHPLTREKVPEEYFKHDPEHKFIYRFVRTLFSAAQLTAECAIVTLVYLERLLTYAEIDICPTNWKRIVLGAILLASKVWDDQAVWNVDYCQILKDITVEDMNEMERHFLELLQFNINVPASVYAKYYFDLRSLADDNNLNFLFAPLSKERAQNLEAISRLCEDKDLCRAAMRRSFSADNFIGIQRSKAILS
UniProt P48643, whole entry, looked up: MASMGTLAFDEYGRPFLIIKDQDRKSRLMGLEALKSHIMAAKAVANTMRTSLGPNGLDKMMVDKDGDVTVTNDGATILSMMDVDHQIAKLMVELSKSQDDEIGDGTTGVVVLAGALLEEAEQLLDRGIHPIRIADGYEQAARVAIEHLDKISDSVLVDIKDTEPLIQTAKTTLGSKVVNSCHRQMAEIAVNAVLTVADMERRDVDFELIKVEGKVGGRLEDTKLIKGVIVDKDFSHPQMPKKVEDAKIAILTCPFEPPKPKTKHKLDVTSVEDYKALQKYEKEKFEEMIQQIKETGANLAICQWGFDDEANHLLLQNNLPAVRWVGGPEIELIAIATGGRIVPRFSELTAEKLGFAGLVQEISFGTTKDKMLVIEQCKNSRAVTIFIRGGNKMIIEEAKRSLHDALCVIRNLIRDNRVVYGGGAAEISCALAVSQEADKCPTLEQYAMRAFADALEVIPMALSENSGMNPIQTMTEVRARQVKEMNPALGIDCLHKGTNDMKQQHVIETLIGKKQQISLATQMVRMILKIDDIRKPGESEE
UniProt P30279, whole entry, looked up: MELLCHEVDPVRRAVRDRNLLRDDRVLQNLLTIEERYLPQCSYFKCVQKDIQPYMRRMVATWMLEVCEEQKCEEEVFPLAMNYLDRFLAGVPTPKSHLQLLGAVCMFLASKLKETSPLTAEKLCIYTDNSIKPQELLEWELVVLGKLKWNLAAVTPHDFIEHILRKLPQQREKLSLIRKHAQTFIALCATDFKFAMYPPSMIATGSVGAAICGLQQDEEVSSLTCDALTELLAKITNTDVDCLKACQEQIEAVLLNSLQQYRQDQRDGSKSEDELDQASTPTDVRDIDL
UniProt O95810: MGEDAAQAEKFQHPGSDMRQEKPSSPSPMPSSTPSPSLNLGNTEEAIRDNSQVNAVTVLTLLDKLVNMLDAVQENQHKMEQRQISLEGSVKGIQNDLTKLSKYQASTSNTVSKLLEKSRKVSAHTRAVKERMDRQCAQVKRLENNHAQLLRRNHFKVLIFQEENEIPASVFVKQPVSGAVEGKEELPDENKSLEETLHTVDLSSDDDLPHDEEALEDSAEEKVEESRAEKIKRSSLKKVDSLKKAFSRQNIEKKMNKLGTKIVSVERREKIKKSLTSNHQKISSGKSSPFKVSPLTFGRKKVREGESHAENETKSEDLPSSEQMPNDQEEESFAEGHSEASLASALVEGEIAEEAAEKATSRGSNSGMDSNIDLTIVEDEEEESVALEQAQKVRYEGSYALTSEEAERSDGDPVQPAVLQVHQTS
UniProt Q08722, whole entry, looked up: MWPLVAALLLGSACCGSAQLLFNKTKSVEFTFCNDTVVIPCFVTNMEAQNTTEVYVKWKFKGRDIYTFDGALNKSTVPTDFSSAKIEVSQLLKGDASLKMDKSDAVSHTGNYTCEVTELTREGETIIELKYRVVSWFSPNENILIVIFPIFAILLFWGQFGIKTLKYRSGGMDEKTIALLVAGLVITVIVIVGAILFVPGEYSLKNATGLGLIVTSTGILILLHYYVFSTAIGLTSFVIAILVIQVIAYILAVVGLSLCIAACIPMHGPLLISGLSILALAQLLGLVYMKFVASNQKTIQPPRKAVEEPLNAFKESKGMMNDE
UniProt P86791: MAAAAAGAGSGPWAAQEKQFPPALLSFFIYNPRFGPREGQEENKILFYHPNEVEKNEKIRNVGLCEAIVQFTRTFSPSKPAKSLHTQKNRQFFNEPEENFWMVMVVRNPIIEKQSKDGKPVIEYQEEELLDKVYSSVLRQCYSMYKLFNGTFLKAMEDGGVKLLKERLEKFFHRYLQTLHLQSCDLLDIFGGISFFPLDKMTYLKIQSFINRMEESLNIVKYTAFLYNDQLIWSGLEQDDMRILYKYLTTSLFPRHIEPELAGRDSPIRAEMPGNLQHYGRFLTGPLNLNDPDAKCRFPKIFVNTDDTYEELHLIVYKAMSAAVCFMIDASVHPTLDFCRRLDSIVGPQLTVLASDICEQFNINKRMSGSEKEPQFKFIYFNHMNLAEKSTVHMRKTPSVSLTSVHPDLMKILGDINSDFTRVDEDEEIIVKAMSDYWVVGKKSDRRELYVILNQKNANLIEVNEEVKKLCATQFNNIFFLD
UniProt Q6P4E1: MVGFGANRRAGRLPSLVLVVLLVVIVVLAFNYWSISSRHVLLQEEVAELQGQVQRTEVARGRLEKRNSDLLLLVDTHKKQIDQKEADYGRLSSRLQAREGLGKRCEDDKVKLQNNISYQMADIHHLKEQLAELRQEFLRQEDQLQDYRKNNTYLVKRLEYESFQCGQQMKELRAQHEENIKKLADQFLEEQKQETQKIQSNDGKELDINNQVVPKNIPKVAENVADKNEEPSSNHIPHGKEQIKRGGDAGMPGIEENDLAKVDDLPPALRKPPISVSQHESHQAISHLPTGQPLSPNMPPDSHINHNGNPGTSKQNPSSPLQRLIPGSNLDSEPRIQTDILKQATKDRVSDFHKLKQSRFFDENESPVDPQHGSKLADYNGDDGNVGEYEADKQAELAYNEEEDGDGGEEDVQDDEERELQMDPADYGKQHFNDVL
UniProt P13987: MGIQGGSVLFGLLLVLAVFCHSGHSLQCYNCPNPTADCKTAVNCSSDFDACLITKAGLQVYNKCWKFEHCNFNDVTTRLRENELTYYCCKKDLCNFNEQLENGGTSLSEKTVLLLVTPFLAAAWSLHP
UniProt O15446, whole entry, looked up: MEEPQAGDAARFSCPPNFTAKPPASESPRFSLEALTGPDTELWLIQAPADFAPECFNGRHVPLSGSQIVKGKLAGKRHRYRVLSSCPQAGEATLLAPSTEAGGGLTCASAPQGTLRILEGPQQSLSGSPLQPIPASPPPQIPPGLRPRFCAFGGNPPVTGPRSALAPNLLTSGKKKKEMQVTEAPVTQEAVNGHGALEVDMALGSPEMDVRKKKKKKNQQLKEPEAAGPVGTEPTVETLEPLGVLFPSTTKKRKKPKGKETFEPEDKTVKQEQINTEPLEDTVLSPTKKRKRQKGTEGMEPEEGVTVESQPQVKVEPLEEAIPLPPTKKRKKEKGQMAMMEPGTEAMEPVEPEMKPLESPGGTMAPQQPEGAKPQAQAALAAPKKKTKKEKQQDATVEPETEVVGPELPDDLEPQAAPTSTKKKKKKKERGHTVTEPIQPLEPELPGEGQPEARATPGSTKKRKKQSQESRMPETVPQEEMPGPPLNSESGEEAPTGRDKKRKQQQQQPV
UniProt P40227, whole entry, looked up: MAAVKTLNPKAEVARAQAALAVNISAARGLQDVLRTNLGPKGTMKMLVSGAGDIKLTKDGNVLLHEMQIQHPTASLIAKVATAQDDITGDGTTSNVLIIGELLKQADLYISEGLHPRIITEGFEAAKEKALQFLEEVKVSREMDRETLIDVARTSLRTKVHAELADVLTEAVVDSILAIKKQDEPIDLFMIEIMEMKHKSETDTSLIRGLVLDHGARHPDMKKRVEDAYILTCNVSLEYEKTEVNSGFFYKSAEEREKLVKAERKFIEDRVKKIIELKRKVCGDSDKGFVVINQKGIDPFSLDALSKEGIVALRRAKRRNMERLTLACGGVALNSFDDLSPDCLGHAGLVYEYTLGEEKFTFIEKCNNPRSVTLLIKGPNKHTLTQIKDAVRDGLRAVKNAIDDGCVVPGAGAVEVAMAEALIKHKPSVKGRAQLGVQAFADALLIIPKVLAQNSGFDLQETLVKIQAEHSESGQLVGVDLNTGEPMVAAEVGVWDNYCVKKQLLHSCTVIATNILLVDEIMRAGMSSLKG
UniProt Q5RIA9: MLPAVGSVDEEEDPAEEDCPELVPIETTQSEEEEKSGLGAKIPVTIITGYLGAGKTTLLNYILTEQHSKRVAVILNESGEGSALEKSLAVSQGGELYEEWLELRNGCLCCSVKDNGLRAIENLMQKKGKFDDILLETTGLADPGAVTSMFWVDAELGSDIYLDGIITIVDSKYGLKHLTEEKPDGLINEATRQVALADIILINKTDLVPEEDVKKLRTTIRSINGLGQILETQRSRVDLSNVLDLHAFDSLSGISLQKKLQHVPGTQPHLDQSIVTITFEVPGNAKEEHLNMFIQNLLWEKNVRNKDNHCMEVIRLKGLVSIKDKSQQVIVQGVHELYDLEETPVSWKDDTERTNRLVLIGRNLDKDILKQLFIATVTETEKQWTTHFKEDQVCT
UniProt Q96ER9: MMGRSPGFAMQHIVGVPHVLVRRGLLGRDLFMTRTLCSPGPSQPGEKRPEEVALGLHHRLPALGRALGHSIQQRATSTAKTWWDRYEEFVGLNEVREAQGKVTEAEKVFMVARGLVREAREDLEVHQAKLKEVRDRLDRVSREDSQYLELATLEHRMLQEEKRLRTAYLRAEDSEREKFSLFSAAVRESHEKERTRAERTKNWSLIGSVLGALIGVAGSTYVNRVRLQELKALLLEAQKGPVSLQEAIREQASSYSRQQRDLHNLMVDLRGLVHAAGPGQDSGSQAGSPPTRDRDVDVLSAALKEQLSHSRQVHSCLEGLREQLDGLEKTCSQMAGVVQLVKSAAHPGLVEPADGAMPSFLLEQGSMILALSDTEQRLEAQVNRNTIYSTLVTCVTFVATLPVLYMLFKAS
UniProt Q8WUD4: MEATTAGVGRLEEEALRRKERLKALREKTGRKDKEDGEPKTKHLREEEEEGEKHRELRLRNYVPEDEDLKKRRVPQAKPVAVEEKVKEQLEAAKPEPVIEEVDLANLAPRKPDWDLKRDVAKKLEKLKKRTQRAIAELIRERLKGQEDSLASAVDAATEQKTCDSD
UniProt Q9HA77: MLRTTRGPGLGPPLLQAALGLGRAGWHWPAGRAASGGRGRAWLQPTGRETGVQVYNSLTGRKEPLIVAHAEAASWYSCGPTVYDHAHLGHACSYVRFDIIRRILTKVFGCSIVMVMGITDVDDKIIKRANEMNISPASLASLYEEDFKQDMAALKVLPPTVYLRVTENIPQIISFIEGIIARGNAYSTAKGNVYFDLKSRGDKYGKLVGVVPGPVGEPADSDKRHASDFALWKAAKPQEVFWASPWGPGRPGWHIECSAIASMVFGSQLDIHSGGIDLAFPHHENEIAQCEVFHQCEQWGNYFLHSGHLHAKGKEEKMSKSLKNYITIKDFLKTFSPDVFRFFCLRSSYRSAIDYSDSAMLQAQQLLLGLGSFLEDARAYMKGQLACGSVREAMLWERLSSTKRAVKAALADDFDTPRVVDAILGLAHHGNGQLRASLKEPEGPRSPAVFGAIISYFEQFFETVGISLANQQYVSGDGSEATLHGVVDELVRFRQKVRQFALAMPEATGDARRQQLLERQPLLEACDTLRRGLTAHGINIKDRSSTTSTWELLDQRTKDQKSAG
UniProt Q4G0I0: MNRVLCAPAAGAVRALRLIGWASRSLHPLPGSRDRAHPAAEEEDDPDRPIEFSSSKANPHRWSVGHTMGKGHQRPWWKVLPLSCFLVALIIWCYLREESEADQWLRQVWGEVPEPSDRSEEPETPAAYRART
UniProt P45973, whole entry, looked up: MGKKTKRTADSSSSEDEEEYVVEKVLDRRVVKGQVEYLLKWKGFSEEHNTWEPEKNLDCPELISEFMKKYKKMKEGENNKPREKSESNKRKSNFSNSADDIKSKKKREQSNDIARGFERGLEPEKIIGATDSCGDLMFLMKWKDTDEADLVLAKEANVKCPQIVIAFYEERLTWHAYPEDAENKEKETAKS
UniProt Q9Y2G2: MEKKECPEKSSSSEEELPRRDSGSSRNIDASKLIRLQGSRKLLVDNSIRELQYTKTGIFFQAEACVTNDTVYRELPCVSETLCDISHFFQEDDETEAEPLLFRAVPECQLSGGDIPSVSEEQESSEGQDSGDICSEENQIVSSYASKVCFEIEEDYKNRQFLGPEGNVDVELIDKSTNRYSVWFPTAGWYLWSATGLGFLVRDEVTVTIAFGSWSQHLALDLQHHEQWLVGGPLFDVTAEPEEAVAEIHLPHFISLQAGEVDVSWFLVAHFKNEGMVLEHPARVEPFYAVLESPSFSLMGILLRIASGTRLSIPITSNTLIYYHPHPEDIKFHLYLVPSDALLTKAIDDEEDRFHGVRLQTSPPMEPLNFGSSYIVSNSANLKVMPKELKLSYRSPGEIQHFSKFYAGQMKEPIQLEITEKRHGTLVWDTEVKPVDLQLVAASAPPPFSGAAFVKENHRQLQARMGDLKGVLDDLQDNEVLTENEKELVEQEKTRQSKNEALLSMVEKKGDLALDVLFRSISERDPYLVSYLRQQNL

How the values were obtained:
Test in all cases: log2 fold change, soluble protein after heating vs DMSO (PISA); higher = thermal stabilisation; K562 lysate, 10 uM; active = over 0.2 and 3.5 SD of the protein, either way, in both replicates (recomputed)
ibrutinib = compound: C=CC(=O)N1CCC[C@@H](n2nc(-c3ccc(Oc4ccccc4)cc3)c3c(N)ncnc32)C1 [ibrutinib]
In short: (§1)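 Pellets of K562 cells were dounce-homogenised in PBS pH 7.4 with 1 mM MgCl2, and the crude extract was held at 1 mg/mL protein for a 30 min treatment with 10 μM compound. Aliquots were heated for 3 min over 48°C-58°C and pooled before NP-40 was added to 0.5% at 4°C. The supernatant from 21,000xg for 90 min was quantified by TMTpro 16plex LC-MS/MS with channel sums equalised. Values are reported from duplicates as log-two fold change in thermal stability relative to solvent controls.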

[1] = compound: CC(=O)c1cnc2ccc(-c3cc(Cl)c(O)c(Cl)c3)nc2c1N[C@H]1CC[C@H](CN(C)C)CC1
In short: as §1

ralimetinib = compound: CC(C)(C)Cn1c(N)nc2ccc(-c3[nH]c(C(C)(C)C)nc3-c3ccc(F)cc3)nc21 [ralimetinib]
In short: as §1

[2] = compound: CC(C)(O)CC(=O)NCCn1ccc2ncnc(Nc3ccc(Oc4cccc(C(F)(F)F)c4)c(Cl)c3)c21
In short: as §1

[3] = compound: CC(C)C1=C2N=C(C=C(N2N=C1)NCC3=CC=CC=C3)NCCCCCCN
In short: as §1

[4] = compound: CC1=C(C(CC(=O)N1)C2=CC=C(C=C2)C(F)(F)F)C(=O)NC3=C(C=C4C(=C3)C=NN4)F
In short: as §1

[5] = compound: CC1=C(C2=C(C=C1)C(=O)C3=CC=CC=C3N2CCCN)C
In short: as §1

[6] = compound: CC1=C(C=C(C=C1)NC(=O)C2=CC(=CC=C2)C(C)(C)C#N)NC3=CC4=C(C=C3)N=CN(C4=O)C
In short: as §1

[7] = compound: CC1=C(C=C(C=C1)NC(=O)C2=CC(=CC=C2)N(C)C)NC(=O)C3=CC=C(C=C3)O
In short: as §1

[8] = compound: CC1=CC=C(C=C1)SC2=C3C=C(SC3=CN=C2)C(=O)N
In short: as §1

Measured: log2 fold change

CCNT1 (UniProt O60563)
inactive: ibrutinib -0.011 | [1] -0.118 | ralimetinib 0.03 | [2] -0.035 | [3] 0.09 | [4] 0.052 | [5] -0.017 | [6] 0.01 | [7] 0 | [8] 0.021

CCNYL1 (UniProt Q8N7R7)
inactive: ibrutinib 0.047 | [1] 0.007 | ralimetinib 0.019 | [2] -0.032 | [3] 0.012 | [4] 0.027 | [5] -0.023 | [6] 0.028 | [7] -0.027 | [8] -0.006

CCT5 (UniProt P48643)
inactive: ibrutinib 0.006 | [1] 0.001 | ralimetinib -0.002 | [2] 0.016 | [3] -0.016 | [4] -0.009 | [5] 0.01 | [6] -0.01 | [7] -0.01 | [8] 0.012

CD81 (UniProt P60033)
inactive: ibrutinib -0.065 | [1] -0.02 | ralimetinib -0.065 | [2] -0.056 | [3] -0.031 | [4] 0.004 | [5] -0.001 | [6] -0.026 | [7] 0.034 | [8] -0.077

CCND2 (UniProt P30279)
inactive: ibrutinib -0.045 | [1] -0.029 | ralimetinib -0.002 | [2] -0.005 | [3] -0.052 | [4] -0.49 | [5] -0.015 | [6] 0.024 | [7] -0.098 | [8] -0.161

CAVIN2 (UniProt O95810)
inactive: ibrutinib 0.05 | [1] -0.008 | ralimetinib 0.03 | [2] -0.018 | [3] 0.005 | [4] -0.01 | [5] 0.014 | [6] 0.039 | [7] 0.025 | [8] -0.014

CD47 (UniProt Q08722)
inactive: ibrutinib -0.119 | [1] 0.003 | ralimetinib 0.041 | [2] -0.016 | [3] -0.018 | [4] -0.087 | [5] -0.005 | [6] 0.061 | [7] -0.013 | [8] -0.017

CCAR1 (UniProt Q8IX12)
inactive: ibrutinib 0.014 | [1] 0.003 | ralimetinib -0.004 | [2] -0.021 | [3] 0.012 | [4] 0.018 | [5] 0.013 | [6] -0.05 | [7] -0.003 | [8] -0.005

CCNDBP1 (UniProt O95273)
inactive: ibrutinib -0.032 | [1] 0.039 | ralimetinib -0.02 | [2] 0.015 | [3] -0.018 | [4] 0.011 | [5] -0.061 | [6] -0.009 | [7] -0.007 | [8] -0.019

CCZ1 (UniProt P86791)
inactive: ibrutinib 0.011 | [1] 0.034 | ralimetinib -0.007 | [2] -0.003 | [3] -0.02 | [4] 0.019 | [5] 0.013 | [6] 0.008 | [7] 0.016 | [8] 0.009

CD46 isoform 2 (UniProt P15529)
inactive: ibrutinib 0.014 | [1] 0.004 | ralimetinib 0.048 | [2] 0.028 | [3] -0.018 | [4] -0.004 | [5] 0.03 | [6] 0.056 | [7] 0.004 | [8] 0.017

CASC4 (UniProt Q6P4E1)
inactive: ibrutinib 0.001 | [1] -0.032 | ralimetinib -0.029 | [2] -0.008 | [3] -0.012 | [4] -0.055 | [5] 0.057 | [6] -0.016 | [7] 0.029 | [8] -0.036

CD59 isoform 2 (UniProt P13987)
inactive: ibrutinib -0.03 | [1] -0.004 | ralimetinib -0.008 | [2] -0.019 | [3] -0.009 | [4] 0.019 | [5] 0.054 | [6] -0.093 | [7] -0.043 | [8] -0.007

CD3EAP isoform 2 (UniProt O15446)
inactive: ibrutinib -0.006 | [1] -0.011 | ralimetinib 0.022 | [2] -0.062 | [3] -0.02 | [4] -0.006 | [5] -0.034 | [6] 0.004 | [7] 0.021 | [8] 0.001

CCDC174 (UniProt Q6PII3)
inactive: ibrutinib 0.048 | [1] 0.002 | ralimetinib -0.006 | [2] 0.027 | [3] -0.033 | [4] 0.045 | [5] -0.009 | [6] 0.078 | [7] -0.013 | [8] -0.016

CCPG1 isoform 5 (UniProt Q9ULG6)
inactive: ibrutinib 0.021 | [1] -0.014 | ralimetinib 0.08 | [2] 0.013 | [3] 0.014 | [4] -0.004 | [5] -0.058 | [6] -0.026 | [7] -0.029 | [8] -0.102

CCT6A (UniProt P40227)
inactive: ibrutinib 0.017 | [1] -0.005 | ralimetinib -0.007 | [2] 0.022 | [3] -0.013 | [4] -0.014 | [5] 0.003 | [6] -0.016 | [7] -0.014 | [8] 0.018

CC2D1B isoform 2 (UniProt Q5T0F9)
inactive: ibrutinib 0.044 | [1] -0.02 | ralimetinib 0.021 | [2] 0.002 | [3] 0.029 | [4] 0.029 | [5] -0.046 | [6] 0.042 | [7] 0.014 | [8] -0.021

CBWD5 (UniProt Q5RIA9)
inactive: ibrutinib 0.025 | [1] -0.006 | ralimetinib 0.02 | [2] 0.001 | [3] -0.042 | [4] -0.013 | [5] -0.005 | [6] 0.03 | [7] 0.015 | [8] -0.007

CCDC51 (UniProt Q96ER9)
inactive: ibrutinib 0.056 | [1] 0.011 | ralimetinib -0.012 | [2] 0.036 | [3] -0.011 | [4] 0.025 | [5] 0.011 | [6] -0.013 | [7] 0.033 | [8] 0.013

Two records picked at random from those above:
CCPG1 isoform 5 (UniProt Q9ULG6)
inactive: ibrutinib 0.021 | [1] -0.014 | ralimetinib 0.08 | [2] 0.013 | [3] 0.014 | [4] -0.004 | [5] -0.058 | [6] -0.026 | [7] -0.029 | [8] -0.102

CCT6A (UniProt P40227)
inactive: ibrutinib 0.017 | [1] -0.005 | ralimetinib -0.007 | [2] 0.022 | [3] -0.013 | [4] -0.014 | [5] 0.003 | [6] -0.016 | [7] -0.014 | [8] 0.018

Next part

CASP8 isoform 9 (UniProt Q14790)
inactive: ibrutinib 0.053 | [1] -0.009 | ralimetinib 0.018 | [2] 0.022 | [3] -0.001 | [4] -0.012 | [5] 0.002 | [6] -0.023 | [7] 0.002 | [8] 0.023

CARM1 (UniProt Q86X55)
inactive: ibrutinib -0.006 | [1] 0.004 | ralimetinib -0.014 | [2] -0.025 | [3] -0.007 | [4] -0.025 | [5] 0.009 | [6] 0.014 | [7] -0.05 | [8] -0.01

CCDC12 (UniProt Q8WUD4)
inactive: ibrutinib -0.055 | [1] -0.007 | ralimetinib -0.061 | [2] 0.057 | [3] -0.008 | [4] -0.046 | [5] -0.019 | [6] 0.009 | [7] 0.059 | [8] -0.037

CCDC6 (UniProt Q16204)
inactive: ibrutinib 0.033 | [1] 0.005 | ralimetinib 0.007 | [2] 0.006 | [3] 0.013 | [4] -0.002 | [5] 0.005 | [6] 0.031 | [7] -0.007 | [8] -0.011

CARS2 (UniProt Q9HA77)
inactive: ibrutinib -0.015 | [1] -0.034 | ralimetinib 0.005 | [2] 0.013 | [3] -0.048 | [4] 0.014 | [5] -0.002 | [6] 0.058 | [7] 0.028 | [8] 0.026

CCDC82 (UniProt Q8N4S0)
inactive: ibrutinib -0.064 | [1] 0.086 | ralimetinib 0.048 | [2] -0.079 | [3] -0.017 | [4] 0.028 | [5] 0.001 | [6] -0.029 | [7] 0.013 | [8] -0.159

CCSMST1 (UniProt Q4G0I0)
inactive: ibrutinib 0.16 | [1] 0.018 | ralimetinib -0.024 | [2] -0.078 | [3] -0.081 | [4] -0.002 | [5] 0.067 | [6] 0.017 | [7] 0.012 | [8] -0.158

CBX5 (UniProt P45973)
inactive: ibrutinib -0.047 | [1] -0.007 | ralimetinib -0.024 | [2] -0.087 | [3] -0.02 | [4] -0.088 | [5] -0.02 | [6] 0.028 | [7] 0.007 | [8] -0.033

CARD8 isoform 5 (UniProt Q9Y2G2)
inactive: ibrutinib -0.024 | [1] -0.029 | ralimetinib 0.007 | [2] -0.027 | [3] -0.012 | [4] 0.047 | [5] -0.028 | [6] -0.007 | [7] -0.019 | [8] -0.053
